Laboratory results taken from patent US20240043529A1, “METHODS AND COMPOSITIONS RELATED TO BCL2 AND BIM HETERODIMER ANTIBODIES” (Eutropics Pharmaceuticals, Inc., priority 2020, published 2024).
Results are given in words; binding and its absence hold for the method and conditions named. Some entries that bind do so weakly or less than the wild type.

Chains of the proteins cited; added tags and fusions are not shown. Lines headed by an entry give the natural chain unless they say otherwise; changes in a name come on top.
UniProt P10415: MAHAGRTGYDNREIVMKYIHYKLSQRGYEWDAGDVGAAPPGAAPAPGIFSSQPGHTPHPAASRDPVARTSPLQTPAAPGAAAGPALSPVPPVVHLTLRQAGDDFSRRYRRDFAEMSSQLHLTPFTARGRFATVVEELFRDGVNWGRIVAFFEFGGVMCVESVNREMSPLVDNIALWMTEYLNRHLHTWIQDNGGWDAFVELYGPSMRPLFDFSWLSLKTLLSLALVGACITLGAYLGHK
UniProt O43521: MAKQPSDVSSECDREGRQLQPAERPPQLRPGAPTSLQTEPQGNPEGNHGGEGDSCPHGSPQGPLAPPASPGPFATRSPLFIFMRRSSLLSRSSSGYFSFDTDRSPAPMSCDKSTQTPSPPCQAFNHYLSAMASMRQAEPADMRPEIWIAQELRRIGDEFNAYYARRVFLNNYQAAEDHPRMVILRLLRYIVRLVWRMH

Molecular target: Bc12:BIM heterodimer (as used in FIG. 8) (human) (UniProt P10415+O43521)
Test: ELISA, signal relative to the Bc12:BIM heterodimer

binding | Binder
binds | HSB2B clone 2H3G7 (antibody, V domains shown, Mouse IgG, tested as hybridoma supernatant; also called HSB2B mAb 2H3) VH: QVQLQQPGAELVKPGTSVKLSCQASGYTFASYWMHWVKQRPGRGLEWIGRIDPNSGGTKYNEKFKSKVTLTVDKPSSAAYMQLSSLTSEDSAVYYCARWWDYDYFDYWGQGTTLTVSS VL: DIVMTQSPSSLTVTAGEKVTMSCKSSQSLLNSGNQKRYLTWYQQKPGQPPKLLIYWASTRESGVPDRFTGSGSGTDFTLTISSVQAEDLAVYYCQNDYNYPLTFGSGTKLELK
binds | HSB2B clone 28A9D11 (antibody, V domains shown, Mouse IgG, tested as hybridoma supernatant) VH: DVQLQESGPGLVKPSQSLSLTCSVTGYSITSGYYWNWIRQFPGNKLEWMGYISYDGSNNYNPSLKNRISITRDTSKNQFFLKLNSVTTEDTATYYCARDGTTVVATLAYWGQGTLVTVSA VL: QIVLTQSPAIMSASPGEKVTISCSASSSVSYMYWYQQKPGSSPKPWIYRTSNLASGVPARFSGSGSGTSYSLTISSMEAEDAATYYCQQYHSYPPTFGAGTKLELK
